Laboratory results: PubChem BioAssay AID504808 (Drosophila RNAi Screening Center, 2011)
Aim: 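Chromatin factors that keep E2F targets switched off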 (primary screen). Cells: Drosophila S2 cells. Reagent: long dsRNA against Drosophila genes. Measurement: 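Dual luciferase plate measurements; E2F-specific signal taken as firefly over Renilla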. Direction: E2F firefly: higher = more E2F reporter activity; Renilla normaliser: higher = more normaliser reporter signal. Hit rule: 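Called active if the normalised E2F reporter went up by over 50%; the cutoff is arbitrary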.
In all, the deposit lists about 21,000 reagents; shown is an unselected part of those that have a named target and a result. Over the whole deposit, 18 (0.084%) are marked active. 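Raw counts without plate normalisation, one of two replicates; the ratio scores behind the calls were not deposited.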 Entries without a mark were called inactive. Names joined by + are all predicted targets of the reagent. Not stated in the record: the amount of reagent, the time to read-out.

no.	target	dsRNA	E2F firefly, rep 1	Renilla normaliser, rep 1
1	Gbp1	DRSC06592	1.65e5	5317
2	Cox10	DRSC02804	75226	3792
3	CycD	DRSC20233	32901	5640
4	CG10232	DRSC14218	1.03e5	5204
5	CG16896	DRSC04284	89293	3521
6	rut	DRSC20367	1.08e5	3715
7	CG34320 (retired record)	DRSC17682	77507	2714
8	ADD1	DRSC07135	2701	215
9	Dred	DRSC11057	1.29e5	5654
10	Dred	DRSC11059	56225	3452
11	Rnf146	DRSC11045	1.43e5	7150
12	MP1	DRSC12124	67169	3453
13	Ppox	DRSC17033	1.10e5	5307
14	Atu	DRSC12123	60688	3503
15	CG9503	DRSC20186	2.24e5	6814
16	Pph13	DRSC00775	83226	3403
17	CG1690	DRSC06636	1.31e5	4169
18	Opa1	DRSC07191	167	30
19	Rab2	DRSC05017	81320	3538
20	kon	DRSC02033	85503	3348
21	CG42306 + Gint3	DRSC06934	75639	3302
22	CG12640	DRSC17847	1.33e5	6126
23	nac	DRSC16520	1.23e5	5849
24	CG10734	DRSC05998	1.48e5	5643
25	MFS3	DRSC00664	1.41e5	5286
26	Jhbp4	DRSC14222	1.18e5	6159
27	Pif1A	DRSC12708	77096	4451
28	Pif1A	DRSC14383	1.54e5	7485
29	Nt5c	DRSC06711	2963	212
30	Atg10 + CG12822	DRSC06796	1.40e5	5129
31	TwdlR	DRSC14736	93220	5109
32	CG10300	DRSC14225	1.22e5	5908
33	Sk1	DRSC19774	94738	5464
34	rngo	DRSC19903	56249	3823
35	Sil1	DRSC14242	66208	3573
36	CG10931	DRSC06015	1.58e5	5414
37	CG6066	DRSC15959	1.24e5	6345
38	BG642163	DRSC00342	1.62e5	5265
39	BG642163	DRSC00343	1.47e5	4923
40	CG34427	DRSC09978	96851	3560
41	CG4743	DRSC15636	1.16e5	6040
42	CG34273	DRSC13041	75683	2772
43	Nepl11	DRSC12333	68297	3412
44	CG9391	DRSC11858	1.13e5	5654
45	CG17266	DRSC04979	1.04e5	4416
46	Sec61beta	DRSC07548	98850	3682
47	CG15465	DRSC18048	1.16e5	5087
48	Hs6st	DRSC14348	1.34e5	7400
49	Hs6st	DRSC15182	1.41e5	7410
50	Hs6st	DRSC15581	1.34e5	6547
51	Ugt302K1	DRSC16086	1.53e5	6446
52	CG34386	DRSC06467	1.38e5	5060
53	CG34386	DRSC06468	1.47e5	5161
54	ccb	DRSC20501	1.37e5	5186
55	CG17032	DRSC10241	1.70e5	7640
56	CG14448	DRSC11705	1.52e5	7309
57	CalpB	DRSC11109	78396	3423
58	CG34022 (retired record)	DRSC07949	1.40e5	4438
59	CG6356	DRSC16026	1.02e5	6440
60	Mybbp1A	DRSC18788	1744	896
61	CG34428	DRSC10119	1.26e5	6869
62	dan	DRSC14406	65630	3557
63	Cals	DRSC17196	2101	972
64	Mcm10	DRSC03162	82893	3554
65	CG32801	DRSC17964	1.23e5	5492
66	Spn42De	DRSC05011	1.45e5	4287
67	LManIV	DRSC03222	1.52e5	4716
68	CG30286	DRSC04070	1.13e5	5032
69	CG12865 (retired record)	DRSC06205	1.07e5	4613
70	Socs44A	DRSC06828	1.49e5	4806
71	GatB	DRSC15807	1.14e5	6108
72	scpr-B	DRSC15200	80213	3389
73	CG34242	DRSC09185	1.36e5	4622
74	CG5731	DRSC02883	1.52e5	4940
75	dpr14	DRSC17767	8084	756
76	CG8034	DRSC20076	1.31e5	5641
77	Pgant7	DRSC19991	1.50e5	5432
78	eys	DRSC00113	1.12e5	4755
79	eys	DRSC00402	1.60e5	5529
80	eys	DRSC00403	1.56e5	5368
81	eys	DRSC00695	94705	3385
82	BBS5	DRSC12168	1.49e5	7939
83	CG3588	DRSC18473	1.12e5	5572
84	CG44014	DRSC14995	1.24e5	5934

Records above whose gene name starts with M or m:
target	dsRNA	E2F firefly, rep 1	Renilla normaliser, rep 1
MP1	DRSC12124	67169	3453
MFS3	DRSC00664	1.41e5	5286
Mybbp1A	DRSC18788	1744	896
Mcm10	DRSC03162	82893	3554
